Laboratory results taken from patent US11485657B2, “Biological remediation of groundwater using an algal photobioreactor system” (priority 2019, dated 2022).

Experiments:
C. subellipsoidea [1] = test: Time-course degradation of organophosphates in growing C. subellipsoidea cultures, GC-MS; type: cell-based, Coccomyxa subellipsoidea; conditions: for level of organophosphate remaining in culture: 0.15 mg/mL f.c., between days 4 and 6 in culture, cell-dependent
C. subellipsoidea [2] = test: Paraoxon degradation in heat-treated C. subellipsoidea cultures (spectrophotometric); type: cell-based, Coccomyxa subellipsoidea

CCOP(=S)(OCC)Oc1cc(C)nc(C(C)C)n1 [diazinon]
level of organophosphate remaining in culture (C. subellipsoidea [1]): essentially undetectable levels

CCOC(=O)CC(SP(=S)(OC)OC)C(=O)OCC (stereo not shown) [malathion]
level of organophosphate remaining in culture (C. subellipsoidea [1]): essentially undetectable levels

CCOP(=O)(OCC)Oc1ccc([N+](=O)[O-])cc1 [paraoxon]
level of paraoxon remaining in culture (C. subellipsoidea [1]; paraoxon 0.17 mg/mL added, after 6 days, GC-MS): < 0.025 mg/mL
paraoxon degradation by heat-treated cultures in the dark (C. subellipsoidea [2]; 100° C. for 10 min, dark, 12 h): unable to degrade paraoxon
paraoxon degradation by heat-treated cultures in the light (C. subellipsoidea [2]; 100° C. for 10 min, light, 12 h): degraded paraoxon
paraoxon degradation in heat-treated versus control cultures (C. subellipsoidea [2]; 100° C. for 10 min, paraoxon 0.25 mg/mL, light, after 24 h): increased paraoxon degradation
paraoxon degradation in heat-treated non-oxidized samples (C. subellipsoidea [2]; paraoxon 0.25 mg/mL, light, p-nitrophenol monitored at 24 h and 48 h, versus samples oxidized 12 h): rapidly degraded
